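Genome-wide siRNA knockdown in TC32 Ewing sarcoma cells, comparing luciferase light from an NR0B1-promoter reporter with a CMV-promoter reporter 48 hours after transfection. Each siRNA was applied at 20 nM. A z-score of the log NR0B1-over-CMV signal, less the median of siRNAs with the same seed; more negative means a stronger specific loss of the NR0B1 reporter.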

This is part of the screen; most of the strongest results are not listed here. Sequences are the guide (antisense) strand, without overhang.

siRNA	target gene	seed-corrected z-score
ACUCGGAACAGGUAAAGGC	PTPRG	0.7267
UCGAUUGCAACGACAAUGC	CLCA1	-0.05104
AACGGUCCCAACCUUAUGC	KBTBD2	-0.6626
UCAAUCUCCAUUGCUAUGG	ATP1A2	0.2998
UCAUAGUCCAGCUGGAUUC	SQRDL	0.1729
AUAGGGUUUCAAAUCAGUG	ZNF404	0.0159
UUGUCUGCUAUGUCAAUCU	SNX19P3	-0.5409
UUGCCGUUCACAGUCACCG	DNAJB8	-0.1033
UUCGACUUCGGAUCCAUGC	ABCA12	0.6686
UUCUUUGCGAGUGAGCCUG	USP31	-0.1936
UUCGAAUUUUGAUUGAAGC	VCL	-0.1164
UACCAUCAAGCCGUCCCUG	ASPHD1	-1.362
UUAGUGUCCAGUUCGGUCA	TADA3	0.2273
UAGUGGAUCAAUACCGCCC	RCOR2	0.02326
UCACGGAGUAGUUGAAGUG	GPN3	-0.5932
UUUACAGCUGUCCAGCUUC	PLA2G1B	-0.3628
AGAAUUACCAAGUGAGUCC	CD274	0.3669
UAUACGAACGUGCUUAUUA	RGPD3	-0.1328
UCAAAAUUCGUUAUAAUGG	TMEM38B	-0.8088
UUCGGUUCAGCAUAGUCUU	DCXR	-0.6313
UUUGGAUCAAGUUUAGACC	CCAR1	1.194
UCUUGGACAUGAGUGGACG	TRMT61A	-0.5065
AAGGUAAUGAGGAAGCCGG	SLC2A14	-1.422
UGUUGUUCCCGUAUCACUG	DRAM1	-1.035
UCCUCAUAAAUGGCGCUGG	HM13	-0.6802
UCUUGGAUAGAGGAGUUGG	WFDC10A	-0.4017
UCCGUAACCCUACAAAUGC	GABRG1	-0.2172
UAGCCUCUCAAUAGGAUCC	HS2ST1	0.4227
UCCAUUACAAGGGAAGUGC	MFSD6L	1.413
AGCUGAAACAGGUAGAGGU	PLLP	0.9809
UCAGCGUGAACUUCUGUGA	INPPL1	-0.2555
UCUGGUGCAACAUUCGAGG	DCAF11	-1.44
UUCUCGCAAAUUCACCACC	KIF27	-0.7902
UUGCUUGCGAGCCUUCUCU	H1FOO	0.7047
UAUGUACCUUUAGACACCC	FSD2	0.104
AAAAAUCUCCAAGUGUUGG	ASCL2	1.179
UAUGUUACAACAUGACAUG	OR52R1	1.493
UACUUGACCACAGUGGACA	KIAA1958	-0.3236
UAUGUUCAUACUUCUGCUG	DRAIC	-1.715
UCAUCGGCUACAGAGAUUC	CPA1	0.4151
UCAGCUUCUCUGGACAUAG	SAA2	-0.8957
UCAGUCACAUUUUCGGUCC	CD101	0.4419
AACCCGACAUCCAAGACCC	RPS28	1.64
UGUGAUCUAAAACACUUCC	MED18	0.8214

3 of the entries, repeated:

siRNA,target gene,seed-corrected z-score
AUAGGGUUUCAAAUCAGUG,ZNF404,0.0159
ACUCGGAACAGGUAAAGGC,PTPRG,0.7267
AAGGUAAUGAGGAAGCCGG,SLC2A14,-1.422

From PubChem BioAssay record AID1159506 (NCATS, 2015).